# Test results from the supplement of paper PMC10849652.
# The chains behind the UniProt entries cited, without tags or fusion partners. Where a name states a change or a piece, a line headed by the entry shows the natural chain unless it says otherwise.
# UniProt Q9UKA4: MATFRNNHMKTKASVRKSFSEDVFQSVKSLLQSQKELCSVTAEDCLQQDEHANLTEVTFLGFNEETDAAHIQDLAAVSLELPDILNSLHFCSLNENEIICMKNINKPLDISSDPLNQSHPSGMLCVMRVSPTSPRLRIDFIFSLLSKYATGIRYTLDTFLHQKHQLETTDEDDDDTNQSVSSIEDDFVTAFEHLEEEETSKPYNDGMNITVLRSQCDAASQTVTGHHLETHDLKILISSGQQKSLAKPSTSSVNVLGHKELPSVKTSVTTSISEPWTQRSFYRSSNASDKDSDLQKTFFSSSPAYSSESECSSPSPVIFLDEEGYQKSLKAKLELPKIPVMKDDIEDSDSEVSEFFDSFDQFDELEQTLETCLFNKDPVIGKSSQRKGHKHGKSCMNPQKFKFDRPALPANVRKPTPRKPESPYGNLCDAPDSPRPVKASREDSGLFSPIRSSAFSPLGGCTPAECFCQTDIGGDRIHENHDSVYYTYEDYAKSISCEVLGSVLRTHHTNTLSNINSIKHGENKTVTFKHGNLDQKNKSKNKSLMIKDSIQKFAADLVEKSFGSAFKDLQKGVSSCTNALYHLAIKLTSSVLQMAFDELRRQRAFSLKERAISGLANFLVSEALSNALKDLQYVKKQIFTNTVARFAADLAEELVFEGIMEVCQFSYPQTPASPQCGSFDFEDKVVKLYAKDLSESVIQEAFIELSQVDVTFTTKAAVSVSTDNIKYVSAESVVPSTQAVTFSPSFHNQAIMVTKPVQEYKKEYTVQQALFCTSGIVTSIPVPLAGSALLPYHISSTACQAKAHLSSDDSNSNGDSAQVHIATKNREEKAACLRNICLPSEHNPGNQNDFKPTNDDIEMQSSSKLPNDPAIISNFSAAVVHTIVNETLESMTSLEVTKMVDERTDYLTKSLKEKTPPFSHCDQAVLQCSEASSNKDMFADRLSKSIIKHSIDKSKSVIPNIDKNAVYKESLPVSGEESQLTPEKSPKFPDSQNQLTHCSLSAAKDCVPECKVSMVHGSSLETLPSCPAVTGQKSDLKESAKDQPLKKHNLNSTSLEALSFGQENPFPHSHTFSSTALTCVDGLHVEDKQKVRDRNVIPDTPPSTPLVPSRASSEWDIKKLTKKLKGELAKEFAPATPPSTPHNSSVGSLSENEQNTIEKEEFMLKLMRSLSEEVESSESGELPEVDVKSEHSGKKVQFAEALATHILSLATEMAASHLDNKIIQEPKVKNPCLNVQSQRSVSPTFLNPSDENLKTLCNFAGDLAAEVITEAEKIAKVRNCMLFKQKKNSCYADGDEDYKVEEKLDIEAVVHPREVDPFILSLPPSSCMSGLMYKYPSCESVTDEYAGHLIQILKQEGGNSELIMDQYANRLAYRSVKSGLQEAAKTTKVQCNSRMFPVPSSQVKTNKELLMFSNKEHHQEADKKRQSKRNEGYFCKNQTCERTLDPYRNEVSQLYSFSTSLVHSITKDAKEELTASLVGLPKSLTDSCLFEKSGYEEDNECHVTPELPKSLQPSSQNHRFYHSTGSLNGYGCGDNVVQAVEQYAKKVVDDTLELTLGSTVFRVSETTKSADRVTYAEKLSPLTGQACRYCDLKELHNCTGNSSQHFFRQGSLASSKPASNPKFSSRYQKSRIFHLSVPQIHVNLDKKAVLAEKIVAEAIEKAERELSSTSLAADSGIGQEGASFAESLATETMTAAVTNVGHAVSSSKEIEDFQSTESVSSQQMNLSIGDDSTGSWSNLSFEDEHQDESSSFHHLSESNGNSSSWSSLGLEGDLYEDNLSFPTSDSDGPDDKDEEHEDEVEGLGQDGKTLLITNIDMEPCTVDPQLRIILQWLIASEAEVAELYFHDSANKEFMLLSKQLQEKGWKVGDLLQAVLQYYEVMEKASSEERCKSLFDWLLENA
# UniProt Q13155: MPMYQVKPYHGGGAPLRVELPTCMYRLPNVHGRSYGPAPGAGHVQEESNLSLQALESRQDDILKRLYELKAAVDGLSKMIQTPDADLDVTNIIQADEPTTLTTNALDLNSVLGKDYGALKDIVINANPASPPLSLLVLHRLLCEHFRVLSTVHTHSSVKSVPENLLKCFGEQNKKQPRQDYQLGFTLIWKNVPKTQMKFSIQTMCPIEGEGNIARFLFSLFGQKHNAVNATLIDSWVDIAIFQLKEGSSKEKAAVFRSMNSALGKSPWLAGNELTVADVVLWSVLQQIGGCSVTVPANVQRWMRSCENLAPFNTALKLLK
# UniProt P14550: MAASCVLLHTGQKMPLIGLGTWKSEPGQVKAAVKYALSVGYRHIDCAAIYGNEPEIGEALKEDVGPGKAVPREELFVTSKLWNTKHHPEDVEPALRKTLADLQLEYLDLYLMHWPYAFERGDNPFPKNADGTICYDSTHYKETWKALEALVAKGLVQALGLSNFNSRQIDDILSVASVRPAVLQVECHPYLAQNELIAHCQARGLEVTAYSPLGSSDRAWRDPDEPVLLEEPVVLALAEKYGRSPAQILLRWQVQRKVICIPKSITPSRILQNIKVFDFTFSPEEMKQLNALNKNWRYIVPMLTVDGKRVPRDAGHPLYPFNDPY
# UniProt Q8WYP5: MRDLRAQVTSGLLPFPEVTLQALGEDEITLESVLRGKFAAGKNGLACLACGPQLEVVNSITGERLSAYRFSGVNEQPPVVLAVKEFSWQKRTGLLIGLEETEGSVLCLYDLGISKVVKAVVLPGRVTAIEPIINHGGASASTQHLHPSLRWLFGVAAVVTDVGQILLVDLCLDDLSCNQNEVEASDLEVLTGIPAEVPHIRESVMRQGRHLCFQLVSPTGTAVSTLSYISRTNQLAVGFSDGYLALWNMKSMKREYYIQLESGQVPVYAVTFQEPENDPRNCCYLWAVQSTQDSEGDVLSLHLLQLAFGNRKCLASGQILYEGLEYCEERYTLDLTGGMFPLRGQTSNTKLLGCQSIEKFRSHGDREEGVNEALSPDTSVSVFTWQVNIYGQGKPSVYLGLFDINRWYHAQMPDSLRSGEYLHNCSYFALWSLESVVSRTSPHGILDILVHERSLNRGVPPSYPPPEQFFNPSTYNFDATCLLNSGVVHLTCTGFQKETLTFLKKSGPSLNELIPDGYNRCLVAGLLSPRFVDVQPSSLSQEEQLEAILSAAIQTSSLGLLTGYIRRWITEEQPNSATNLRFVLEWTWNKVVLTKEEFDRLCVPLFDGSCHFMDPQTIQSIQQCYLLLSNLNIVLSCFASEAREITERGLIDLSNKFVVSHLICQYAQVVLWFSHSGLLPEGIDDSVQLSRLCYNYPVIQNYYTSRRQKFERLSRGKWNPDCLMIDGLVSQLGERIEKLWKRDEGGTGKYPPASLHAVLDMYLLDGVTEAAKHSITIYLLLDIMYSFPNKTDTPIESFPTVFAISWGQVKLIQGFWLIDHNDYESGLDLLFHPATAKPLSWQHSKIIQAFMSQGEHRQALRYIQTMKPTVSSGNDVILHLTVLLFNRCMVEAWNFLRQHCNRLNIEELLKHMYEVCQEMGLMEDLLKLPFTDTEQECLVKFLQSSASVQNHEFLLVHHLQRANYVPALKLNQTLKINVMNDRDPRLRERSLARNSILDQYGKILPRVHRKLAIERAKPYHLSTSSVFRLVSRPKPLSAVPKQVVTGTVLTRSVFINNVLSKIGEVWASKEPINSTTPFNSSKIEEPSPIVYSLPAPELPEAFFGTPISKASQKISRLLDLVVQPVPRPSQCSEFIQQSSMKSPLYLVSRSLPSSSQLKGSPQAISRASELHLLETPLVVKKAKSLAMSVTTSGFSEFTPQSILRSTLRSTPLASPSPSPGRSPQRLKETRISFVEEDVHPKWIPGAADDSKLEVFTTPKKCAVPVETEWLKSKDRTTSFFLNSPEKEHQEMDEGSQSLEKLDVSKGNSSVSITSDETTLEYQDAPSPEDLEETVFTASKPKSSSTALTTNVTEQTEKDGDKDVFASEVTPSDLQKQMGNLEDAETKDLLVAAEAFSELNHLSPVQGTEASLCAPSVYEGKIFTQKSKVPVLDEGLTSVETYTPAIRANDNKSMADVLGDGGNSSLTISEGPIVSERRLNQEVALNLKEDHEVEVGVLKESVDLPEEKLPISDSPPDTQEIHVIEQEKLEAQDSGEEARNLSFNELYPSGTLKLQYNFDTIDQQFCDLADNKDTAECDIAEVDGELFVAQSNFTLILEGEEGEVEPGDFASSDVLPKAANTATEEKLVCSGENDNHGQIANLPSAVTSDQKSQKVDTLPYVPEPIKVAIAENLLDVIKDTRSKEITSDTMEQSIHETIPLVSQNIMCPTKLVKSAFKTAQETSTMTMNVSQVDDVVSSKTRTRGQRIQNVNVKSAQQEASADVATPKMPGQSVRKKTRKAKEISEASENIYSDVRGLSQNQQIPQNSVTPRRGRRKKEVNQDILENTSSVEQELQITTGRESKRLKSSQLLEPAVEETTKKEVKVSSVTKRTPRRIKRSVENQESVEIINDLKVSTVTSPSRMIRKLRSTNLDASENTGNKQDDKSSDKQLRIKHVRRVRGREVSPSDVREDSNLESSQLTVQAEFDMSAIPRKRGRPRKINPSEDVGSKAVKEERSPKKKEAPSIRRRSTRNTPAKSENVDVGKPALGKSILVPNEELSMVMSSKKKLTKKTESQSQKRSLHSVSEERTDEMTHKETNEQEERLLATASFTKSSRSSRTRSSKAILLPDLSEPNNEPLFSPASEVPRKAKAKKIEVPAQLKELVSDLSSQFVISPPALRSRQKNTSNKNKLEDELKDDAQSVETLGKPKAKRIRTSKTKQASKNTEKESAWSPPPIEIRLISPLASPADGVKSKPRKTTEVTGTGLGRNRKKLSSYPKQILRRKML
# UniProt P43652: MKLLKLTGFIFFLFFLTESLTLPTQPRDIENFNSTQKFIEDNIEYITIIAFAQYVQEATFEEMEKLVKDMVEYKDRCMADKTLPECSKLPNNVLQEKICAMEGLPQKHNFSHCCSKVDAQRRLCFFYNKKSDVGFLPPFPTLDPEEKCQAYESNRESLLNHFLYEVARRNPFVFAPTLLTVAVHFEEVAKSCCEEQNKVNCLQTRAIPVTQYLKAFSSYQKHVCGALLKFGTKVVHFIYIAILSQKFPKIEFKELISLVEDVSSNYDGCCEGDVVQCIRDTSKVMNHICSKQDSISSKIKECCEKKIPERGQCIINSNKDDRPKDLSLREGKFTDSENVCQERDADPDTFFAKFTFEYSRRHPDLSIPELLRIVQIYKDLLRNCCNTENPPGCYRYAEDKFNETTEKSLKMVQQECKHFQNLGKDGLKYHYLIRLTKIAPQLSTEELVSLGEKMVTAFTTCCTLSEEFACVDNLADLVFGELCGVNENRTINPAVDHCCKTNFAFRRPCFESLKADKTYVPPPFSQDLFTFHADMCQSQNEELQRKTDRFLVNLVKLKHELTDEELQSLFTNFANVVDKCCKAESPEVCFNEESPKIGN
# UniProt Q9BV57: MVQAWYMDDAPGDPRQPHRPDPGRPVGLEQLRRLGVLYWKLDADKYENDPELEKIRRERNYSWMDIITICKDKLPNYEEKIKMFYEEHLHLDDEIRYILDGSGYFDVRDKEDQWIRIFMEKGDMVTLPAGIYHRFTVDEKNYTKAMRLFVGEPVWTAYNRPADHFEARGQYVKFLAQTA
# UniProt P78536: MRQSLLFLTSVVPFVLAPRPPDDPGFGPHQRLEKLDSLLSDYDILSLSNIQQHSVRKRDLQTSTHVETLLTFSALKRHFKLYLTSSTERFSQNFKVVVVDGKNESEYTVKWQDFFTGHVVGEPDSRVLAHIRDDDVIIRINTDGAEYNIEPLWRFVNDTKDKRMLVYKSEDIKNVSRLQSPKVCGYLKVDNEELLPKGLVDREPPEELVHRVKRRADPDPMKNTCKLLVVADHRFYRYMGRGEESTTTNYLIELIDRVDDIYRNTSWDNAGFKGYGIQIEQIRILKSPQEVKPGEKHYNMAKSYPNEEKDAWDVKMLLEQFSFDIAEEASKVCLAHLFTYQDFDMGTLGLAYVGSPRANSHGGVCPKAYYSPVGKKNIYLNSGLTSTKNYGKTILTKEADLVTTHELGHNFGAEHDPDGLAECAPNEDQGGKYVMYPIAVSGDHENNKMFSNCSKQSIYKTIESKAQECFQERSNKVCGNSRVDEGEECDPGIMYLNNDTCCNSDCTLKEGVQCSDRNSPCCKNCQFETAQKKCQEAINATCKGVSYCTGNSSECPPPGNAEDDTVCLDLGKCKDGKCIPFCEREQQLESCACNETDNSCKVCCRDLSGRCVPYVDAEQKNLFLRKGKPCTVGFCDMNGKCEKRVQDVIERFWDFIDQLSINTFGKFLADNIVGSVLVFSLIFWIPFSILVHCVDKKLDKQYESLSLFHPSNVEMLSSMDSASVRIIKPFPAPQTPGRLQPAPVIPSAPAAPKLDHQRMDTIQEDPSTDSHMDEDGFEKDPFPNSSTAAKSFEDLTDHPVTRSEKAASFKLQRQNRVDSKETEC
# UniProt P55008: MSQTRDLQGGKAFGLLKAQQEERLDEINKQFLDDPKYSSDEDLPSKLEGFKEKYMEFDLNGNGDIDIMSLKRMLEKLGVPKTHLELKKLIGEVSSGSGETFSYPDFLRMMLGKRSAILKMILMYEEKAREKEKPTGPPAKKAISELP
# This is one part of the list.
# Columns and labels:
# Experiment in all cases: log2 fold change, soluble protein after heating vs DMSO (PISA); higher = thermal stabilisation; K562 lysate, 10 uM; active = over 0.2 and 3.5 SD of the protein, either way, in both replicates (recomputed)
# alvocidib = compound: CN1CC[C@H](c2c(O)cc(O)c3c(=O)cc(-c4ccccc4Cl)oc23)[C@H](O)C1 [alvocidib]
# How it was run: (§1)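 Dounce homogenisation of K562 pellets in PBS pH 7.4 with 1 mM MgCl2 produced a crude extract, used at 1 mg/mL protein. Exposure to 10 μM compound lasted 30 min, and aliquots were then heated for 3 min across 48°C-58°C, pooled and brought to 0.5% NP-40 at 4°C. The supernatant after 21,000xg for 90 min was quantified by TMTpro 16plex LC-MS/MS with channel sums equalised. Duplicate values are given as log-two fold change in thermal stability relative to solvent controls.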
# Tubastatin A = compound: CN1CCc2c(c3ccccc3n2Cc2ccc(C(=O)NO)cc2)C1 [Tubastatin A]
# How it was run: as §1
# [1] = compound: CNC(=O)C1=CC=CC=C1NC2=NC(=NC=C2Cl)NC3=C(C=C(C=C3)N4CCOCC4)OC
# How it was run: as §1
# defactinib = compound: CNC(=O)c1ccc(Nc2ncc(C(F)(F)F)c(NCc3nccnc3N(C)S(C)(=O)=O)n2)cc1 [defactinib]
# How it was run: as §1
# [2] = compound: CNc1nc(-c2ccc3c(N)n[nH]c3c2)cc(N2C[C@@H](C(=O)NC3CCCCC3)CC[C@H]2C)n1
# How it was run: as §1
# encorafenib = compound: COC(=O)N[C@@H](C)CNc1nccc(-c2cn(C(C)C)nc2-c2cc(Cl)cc(NS(C)(=O)=O)c2F)n1 [encorafenib]
# How it was run: as §1
# [3] = compound: COC(=O)[C@H](CCSC)NC(=O)C1=C(C=C(C=C1)NC[C@H](CS)N)C2=CC=CC=C2
# How it was run: as §1
# alisertib = compound: COc1cc(Nc2ncc3c(n2)-c2ccc(Cl)cc2C(c2c(F)cccc2OC)=NC3)ccc1C(=O)O [alisertib]
# How it was run: as §1
# [4] = compound: COc1cc2nc(-c3cc(F)ccc3O)nc(N[C@@H]3CNC[C@H]3C(C)(C)O)c2cc1OC
# How it was run: as §1
# gefitinib = compound: COc1cc2ncnc(Nc3ccc(F)c(Cl)c3)c2cc1OCCCN1CCOCC1 [gefitinib]
# How it was run: as §1
Target,log2 fold change (alvocidib),log2 fold change (Tubastatin A),log2 fold change [1],log2 fold change (defactinib),log2 fold change [2],log2 fold change (encorafenib),log2 fold change [3],log2 fold change (alisertib),log2 fold change [4],log2 fold change (gefitinib)
AKR1C2 (UniProt P52895),inactive: -0.06,inactive: 0.061,inactive: -0.021,inactive: -0.05,inactive: -0.151,inactive: -0.012,inactive: 0.018,inactive: 0.002,inactive: 0.004,inactive: -0.082
ACTBL2 (UniProt Q562R1),inactive: -0.083,inactive: -0.111,inactive: -0.01,inactive: 0.093,inactive: -0.008,inactive: -0.226,inactive: 0.005,inactive: -0.273,inactive: 0.009,inactive: -0.223
AGK (UniProt Q53H12),inactive: 0.001,inactive: 0.057,inactive: -0.032,inactive: 0.014,inactive: 0.067,inactive: -0.004,inactive: 0.06,inactive: -0.02,inactive: -0.057,inactive: -0.041
AKR1C3 (UniProt P42330),inactive: 0.026,inactive: 0.073,inactive: -0.052,inactive: 0.017,inactive: -0.211,inactive: -0.026,inactive: 0.022,inactive: 0.056,inactive: 0.028,inactive: -0.003
ACTN4 (UniProt O43707),inactive: -0.008,inactive: 0.047,inactive: 0.008,inactive: -0.013,inactive: 0.038,inactive: -0.005,inactive: -0.035,inactive: -0.014,inactive: 0.01,inactive: -0.006
AKAP11 (UniProt Q9UKA4),inactive: 0.032,inactive: 0.026,inactive: 0.001,inactive: 0.093,inactive: -0.01,inactive: -0.03,inactive: 0.144,inactive: -0.022,inactive: -0.119,inactive: -0.114
ADO (UniProt Q96SZ5),inactive: -0.022,inactive: 0.09,inactive: -0.021,inactive: -0.001,inactive: 0.047,inactive: -0.04,inactive: 0.047,inactive: 0.027,inactive: 0.003,inactive: 0
ADD3 (UniProt Q9UEY8),inactive: -0.015,inactive: 0.082,inactive: 0.018,inactive: 0.02,inactive: 0.007,inactive: 0.017,inactive: -0.022,inactive: -0.007,inactive: 0.004,inactive: 0.002
AIMP2 (UniProt Q13155),inactive: 0.037,inactive: -0.11,inactive: 0.006,inactive: -0.01,inactive: -0.007,inactive: -0.02,inactive: 0.093,inactive: 0.011,inactive: -0.028,inactive: -0.088
AGO1 (UniProt Q9UL18),inactive: 0.019,inactive: 0.058,inactive: 0.007,inactive: -0.05,inactive: 0.034,inactive: -0.007,inactive: -0.029,inactive: 0.007,inactive: -0.012,inactive: 0.041
AKR1A1 (UniProt P14550),inactive: -0.006,inactive: 0.01,inactive: -0.007,inactive: -0.008,inactive: 0.001,inactive: -0.044,inactive: 0.052,inactive: -0.014,inactive: -0.006,inactive: 0.024
AHCTF1 isoform 2 (UniProt Q8WYP5),inactive: -0.045,inactive: 0.02,inactive: 0.099,–,–,–,–,–,inactive: 0.082,–
ACTR2 (UniProt P61160),inactive: 0.045,inactive: 0.01,inactive: -0.013,inactive: -0.004,inactive: 0.025,inactive: -0.019,inactive: -0.008,inactive: 0.008,inactive: -0.003,inactive: 0.01
ACYP2 (UniProt P14621),inactive: 0.084,inactive: -0.021,inactive: 0.007,active: 0.329,–,–,–,inactive: -0.096,inactive: -0.009,inactive: -0.02
AFM (UniProt P43652),inactive: -0.049,–,–,inactive: 0,–,inactive: 0.026,inactive: -0.1,–,–,–
ACSL1 (UniProt P33121),inactive: 0.02,inactive: -0.169,inactive: 0.001,inactive: 0.096,inactive: -0.062,inactive: 0.007,inactive: -0.052,inactive: 0.057,inactive: -0.08,inactive: -0.036
ACSF3 (UniProt Q4G176),inactive: -0.025,inactive: -0.037,inactive: 0.027,inactive: 0.035,inactive: -0.013,inactive: -0.052,inactive: -0.044,inactive: 0.014,inactive: -0.023,inactive: 0.052

# Record cards (already shown). Order of values: log2 fold change (alvocidib) | log2 fold change (Tubastatin A) | log2 fold change [1] | log2 fold change (defactinib) | log2 fold change [2] | log2 fold change (encorafenib) | log2 fold change [3] | log2 fold change (alisertib) | log2 fold change [4] | log2 fold change (gefitinib)
# ADD3 (UniProt Q9UEY8) as listed: inactive: -0.015 | inactive: 0.082 | inactive: 0.018 | inactive: 0.02 | inactive: 0.007 | inactive: 0.017 | inactive: -0.022 | inactive: -0.007 | inactive: 0.004 | inactive: 0.002
# ACSL1 (UniProt P33121) as listed: inactive: 0.02 | inactive: -0.169 | inactive: 0.001 | inactive: 0.096 | inactive: -0.062 | inactive: 0.007 | inactive: -0.052 | inactive: 0.057 | inactive: -0.08 | inactive: -0.036

# (further entries)

Target,log2 fold change (alvocidib),log2 fold change (Tubastatin A),log2 fold change [1],log2 fold change (defactinib),log2 fold change [2],log2 fold change (encorafenib),log2 fold change [3],log2 fold change (alisertib),log2 fold change [4],log2 fold change (gefitinib)
AGPAT4 (UniProt Q9NRZ5),inactive: -0.088,inactive: 0.056,inactive: 0.094,–,–,inactive: 0.153,inactive: -0.27,–,–,–
AGAP1 (UniProt Q9UPQ3),inactive: -0.009,inactive: -0.086,inactive: 0.045,inactive: -0.038,inactive: 0.083,–,–,inactive: -0.025,inactive: 0.002,inactive: 0.063
ADD1 isoform 4 (UniProt P35611),inactive: -0.397,inactive: 0.303,inactive: -0.081,inactive: 0.071,inactive: 0.051,inactive: -0.034,inactive: 0,–,inactive: 0.094,–
ADIPOR1 (UniProt Q96A54),inactive: -0.057,inactive: 0.023,inactive: 0.047,inactive: 0.074,inactive: 0.133,inactive: 0.051,inactive: 0.037,inactive: 0.071,–,inactive: -0.175
ADPRM (UniProt Q3LIE5),inactive: -0.025,inactive: 0.071,–,inactive: 0.104,–,inactive: 0.005,inactive: 0.04,–,–,–
"ACTB, A0A2R8YGF8",inactive: -0.107,–,–,inactive: -0.304,–,–,–,–,–,–
ACTB (UniProt C9JTX5),inactive: 0.097,–,–,inactive: 0.085,inactive: 0.076,–,–,inactive: -0.143,inactive: 0.081,inactive: -0.134
AGGF1 (UniProt Q8N302),inactive: -0.114,inactive: -0.058,inactive: 0.023,active: -0.365,–,inactive: 0.126,inactive: 0.008,inactive: -0.015,inactive: 0.145,inactive: -0.008
"ACTN2, A0A494C031",inactive: -0.101,inactive: 0.262,inactive: 0.068,inactive: -0.125,–,inactive: -0.218,inactive: 0.046,inactive: -0.047,inactive: 0.085,inactive: 0.048
ADI1 (UniProt Q9BV57),inactive: -0.002,inactive: 0.004,inactive: -0.016,inactive: 0.042,inactive: -0.128,inactive: -0.062,inactive: 0.029,inactive: 0.023,inactive: 0.02,inactive: 0.043
ACTN4 (UniProt K7EJH8),inactive: -0.002,inactive: 0.07,–,–,inactive: -0.046,inactive: 0.072,inactive: -0.009,inactive: -0.005,inactive: 0.037,inactive: 0.017
ADAM17 (UniProt P78536),inactive: -0.066,inactive: 0.063,inactive: 0.011,inactive: 0.005,inactive: 0.04,inactive: 0.09,inactive: 0.109,inactive: -0.048,–,inactive: 0.031
AIF1 (UniProt P55008),inactive: 0.075,inactive: 0.219,inactive: -0.122,inactive: -0.068,inactive: -0.04,–,–,inactive: 0.094,inactive: -0.169,inactive: 0.008
ADAM10 (UniProt O14672),inactive: 0,inactive: 0.017,inactive: 0.001,inactive: -0.016,inactive: -0.067,inactive: 0.018,inactive: -0.048,inactive: -0.047,inactive: 0.014,inactive: -0.044
AKR1C1 (UniProt Q04828),inactive: 0.068,inactive: 0.134,inactive: -0.012,inactive: 0.047,inactive: -0.242,inactive: -0.069,inactive: 0.042,–,inactive: 0.024,–
ACTR5 (UniProt Q9H9F9),inactive: -0.026,inactive: 0.044,inactive: 0.019,inactive: 0.037,inactive: 0.037,inactive: 0.016,inactive: 0.052,inactive: -0.048,–,inactive: 0.202
